Here are results for twelve substances from PMC5789818.

Protein sequences, listed by entry. Tags and fused reporters are not part of them. Residues count along the entry.
UniProt P62258: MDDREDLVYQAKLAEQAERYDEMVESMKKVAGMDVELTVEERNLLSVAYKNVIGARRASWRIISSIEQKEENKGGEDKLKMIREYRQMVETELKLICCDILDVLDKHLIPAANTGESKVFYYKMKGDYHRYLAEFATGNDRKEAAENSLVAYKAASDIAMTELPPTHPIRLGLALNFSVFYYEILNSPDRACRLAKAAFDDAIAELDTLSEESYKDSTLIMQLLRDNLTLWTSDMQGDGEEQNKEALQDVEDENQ
UniProt Q00610: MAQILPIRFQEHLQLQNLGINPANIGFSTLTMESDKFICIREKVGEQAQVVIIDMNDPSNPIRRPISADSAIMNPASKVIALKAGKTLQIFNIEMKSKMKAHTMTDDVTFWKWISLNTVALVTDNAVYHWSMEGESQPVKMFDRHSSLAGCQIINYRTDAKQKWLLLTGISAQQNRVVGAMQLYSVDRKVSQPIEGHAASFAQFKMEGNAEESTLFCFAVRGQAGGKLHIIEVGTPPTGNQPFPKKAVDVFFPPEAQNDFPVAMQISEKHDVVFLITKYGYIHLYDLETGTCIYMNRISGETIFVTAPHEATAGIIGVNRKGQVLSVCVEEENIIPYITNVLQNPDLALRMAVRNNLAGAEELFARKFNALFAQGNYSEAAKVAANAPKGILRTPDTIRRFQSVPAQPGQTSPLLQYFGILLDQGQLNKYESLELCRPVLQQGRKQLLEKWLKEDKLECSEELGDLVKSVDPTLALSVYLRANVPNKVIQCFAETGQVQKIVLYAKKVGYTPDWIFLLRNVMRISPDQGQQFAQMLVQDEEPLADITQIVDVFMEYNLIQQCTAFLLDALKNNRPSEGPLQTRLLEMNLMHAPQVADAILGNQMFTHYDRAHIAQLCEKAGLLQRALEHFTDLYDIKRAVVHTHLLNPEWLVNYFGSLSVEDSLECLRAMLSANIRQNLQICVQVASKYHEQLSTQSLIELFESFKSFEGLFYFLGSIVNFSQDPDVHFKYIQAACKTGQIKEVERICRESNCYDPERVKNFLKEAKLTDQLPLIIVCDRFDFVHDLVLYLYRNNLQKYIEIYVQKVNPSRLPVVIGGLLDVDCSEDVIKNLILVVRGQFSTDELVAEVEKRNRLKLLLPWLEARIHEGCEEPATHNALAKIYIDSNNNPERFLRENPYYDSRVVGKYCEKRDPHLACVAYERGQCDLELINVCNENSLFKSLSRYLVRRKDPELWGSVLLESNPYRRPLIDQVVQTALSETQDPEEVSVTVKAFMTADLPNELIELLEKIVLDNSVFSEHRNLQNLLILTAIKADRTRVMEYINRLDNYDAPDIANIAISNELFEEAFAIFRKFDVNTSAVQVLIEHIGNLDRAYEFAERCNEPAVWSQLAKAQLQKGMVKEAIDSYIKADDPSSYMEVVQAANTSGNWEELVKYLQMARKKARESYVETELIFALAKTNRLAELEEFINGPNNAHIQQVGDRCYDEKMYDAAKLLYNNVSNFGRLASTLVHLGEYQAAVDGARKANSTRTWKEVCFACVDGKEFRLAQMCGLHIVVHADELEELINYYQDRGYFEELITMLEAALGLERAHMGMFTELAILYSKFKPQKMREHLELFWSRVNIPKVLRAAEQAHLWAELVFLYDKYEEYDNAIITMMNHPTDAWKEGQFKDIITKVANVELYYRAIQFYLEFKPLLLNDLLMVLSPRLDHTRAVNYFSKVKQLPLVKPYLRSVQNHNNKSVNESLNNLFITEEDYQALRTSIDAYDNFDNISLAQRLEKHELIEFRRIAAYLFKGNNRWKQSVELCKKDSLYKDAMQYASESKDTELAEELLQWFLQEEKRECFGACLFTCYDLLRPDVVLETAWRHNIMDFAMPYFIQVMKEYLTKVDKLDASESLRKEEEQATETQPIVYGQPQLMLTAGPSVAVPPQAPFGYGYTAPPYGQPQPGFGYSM
UniProt P14625, residues 22-803: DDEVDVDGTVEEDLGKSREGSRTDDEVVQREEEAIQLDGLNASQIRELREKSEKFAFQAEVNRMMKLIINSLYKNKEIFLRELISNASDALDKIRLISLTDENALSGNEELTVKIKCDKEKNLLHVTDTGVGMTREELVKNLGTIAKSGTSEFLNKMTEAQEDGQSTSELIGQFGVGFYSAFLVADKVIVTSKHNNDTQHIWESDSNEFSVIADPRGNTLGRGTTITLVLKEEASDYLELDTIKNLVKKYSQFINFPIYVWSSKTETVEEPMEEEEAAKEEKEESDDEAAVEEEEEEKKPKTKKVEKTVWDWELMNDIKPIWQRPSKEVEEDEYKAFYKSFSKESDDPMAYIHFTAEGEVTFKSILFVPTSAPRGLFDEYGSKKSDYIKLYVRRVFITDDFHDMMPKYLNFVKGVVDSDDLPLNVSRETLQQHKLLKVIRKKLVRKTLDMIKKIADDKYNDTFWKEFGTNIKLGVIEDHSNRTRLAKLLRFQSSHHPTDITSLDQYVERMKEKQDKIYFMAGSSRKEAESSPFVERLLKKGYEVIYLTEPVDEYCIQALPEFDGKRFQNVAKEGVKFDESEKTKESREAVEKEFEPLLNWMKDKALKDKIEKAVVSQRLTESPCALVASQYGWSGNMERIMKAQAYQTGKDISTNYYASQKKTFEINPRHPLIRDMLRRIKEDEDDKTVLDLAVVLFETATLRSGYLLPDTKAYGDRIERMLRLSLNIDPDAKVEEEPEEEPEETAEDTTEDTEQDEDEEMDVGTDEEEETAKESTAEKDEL
UniProt P08238: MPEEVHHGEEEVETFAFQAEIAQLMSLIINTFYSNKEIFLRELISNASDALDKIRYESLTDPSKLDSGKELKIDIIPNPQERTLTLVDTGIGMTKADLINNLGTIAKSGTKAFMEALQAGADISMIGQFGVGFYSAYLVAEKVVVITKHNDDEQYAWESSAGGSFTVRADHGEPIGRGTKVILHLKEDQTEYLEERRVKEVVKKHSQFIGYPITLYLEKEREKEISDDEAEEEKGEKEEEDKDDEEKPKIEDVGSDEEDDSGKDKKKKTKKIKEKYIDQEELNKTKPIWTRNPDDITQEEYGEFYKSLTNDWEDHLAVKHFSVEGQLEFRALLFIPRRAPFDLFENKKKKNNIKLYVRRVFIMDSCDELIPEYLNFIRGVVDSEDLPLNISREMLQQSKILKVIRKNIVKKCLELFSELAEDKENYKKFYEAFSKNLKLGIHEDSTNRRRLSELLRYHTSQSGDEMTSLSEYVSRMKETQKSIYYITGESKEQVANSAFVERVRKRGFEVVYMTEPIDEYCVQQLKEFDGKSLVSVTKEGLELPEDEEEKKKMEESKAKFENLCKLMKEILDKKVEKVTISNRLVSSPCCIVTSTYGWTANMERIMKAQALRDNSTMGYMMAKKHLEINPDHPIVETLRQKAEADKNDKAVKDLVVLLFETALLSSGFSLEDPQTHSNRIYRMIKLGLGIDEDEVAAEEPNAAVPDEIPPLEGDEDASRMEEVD
UniProt Q92522: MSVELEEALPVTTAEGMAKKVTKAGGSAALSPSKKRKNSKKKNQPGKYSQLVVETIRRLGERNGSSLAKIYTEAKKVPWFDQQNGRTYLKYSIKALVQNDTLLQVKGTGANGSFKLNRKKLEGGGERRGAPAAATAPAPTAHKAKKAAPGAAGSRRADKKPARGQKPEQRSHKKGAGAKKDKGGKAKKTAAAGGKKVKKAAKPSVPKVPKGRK
UniProt O43684: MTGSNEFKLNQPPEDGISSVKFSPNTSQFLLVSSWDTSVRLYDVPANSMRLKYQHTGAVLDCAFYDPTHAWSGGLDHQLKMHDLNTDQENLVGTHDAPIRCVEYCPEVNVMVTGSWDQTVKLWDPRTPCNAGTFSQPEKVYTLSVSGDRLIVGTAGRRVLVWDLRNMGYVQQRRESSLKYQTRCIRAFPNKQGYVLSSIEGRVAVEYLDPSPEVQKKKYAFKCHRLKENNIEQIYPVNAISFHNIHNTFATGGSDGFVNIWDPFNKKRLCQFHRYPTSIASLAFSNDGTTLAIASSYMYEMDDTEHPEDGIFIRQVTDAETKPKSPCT
UniProt P17844: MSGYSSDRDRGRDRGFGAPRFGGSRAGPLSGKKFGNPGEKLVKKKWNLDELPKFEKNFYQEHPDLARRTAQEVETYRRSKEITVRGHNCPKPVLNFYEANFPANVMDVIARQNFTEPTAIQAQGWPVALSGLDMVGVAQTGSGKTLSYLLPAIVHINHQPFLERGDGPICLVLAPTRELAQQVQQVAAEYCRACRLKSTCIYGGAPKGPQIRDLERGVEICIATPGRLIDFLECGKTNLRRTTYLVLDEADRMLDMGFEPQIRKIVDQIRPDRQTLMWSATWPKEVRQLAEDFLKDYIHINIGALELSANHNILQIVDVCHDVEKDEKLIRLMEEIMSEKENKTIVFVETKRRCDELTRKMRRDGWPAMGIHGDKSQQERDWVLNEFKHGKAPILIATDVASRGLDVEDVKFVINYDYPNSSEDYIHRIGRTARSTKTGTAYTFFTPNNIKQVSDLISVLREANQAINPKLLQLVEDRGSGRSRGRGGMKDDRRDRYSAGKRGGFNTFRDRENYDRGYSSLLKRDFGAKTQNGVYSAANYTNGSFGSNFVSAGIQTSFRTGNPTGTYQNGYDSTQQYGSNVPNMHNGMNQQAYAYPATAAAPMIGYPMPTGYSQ
UniProt Q92841: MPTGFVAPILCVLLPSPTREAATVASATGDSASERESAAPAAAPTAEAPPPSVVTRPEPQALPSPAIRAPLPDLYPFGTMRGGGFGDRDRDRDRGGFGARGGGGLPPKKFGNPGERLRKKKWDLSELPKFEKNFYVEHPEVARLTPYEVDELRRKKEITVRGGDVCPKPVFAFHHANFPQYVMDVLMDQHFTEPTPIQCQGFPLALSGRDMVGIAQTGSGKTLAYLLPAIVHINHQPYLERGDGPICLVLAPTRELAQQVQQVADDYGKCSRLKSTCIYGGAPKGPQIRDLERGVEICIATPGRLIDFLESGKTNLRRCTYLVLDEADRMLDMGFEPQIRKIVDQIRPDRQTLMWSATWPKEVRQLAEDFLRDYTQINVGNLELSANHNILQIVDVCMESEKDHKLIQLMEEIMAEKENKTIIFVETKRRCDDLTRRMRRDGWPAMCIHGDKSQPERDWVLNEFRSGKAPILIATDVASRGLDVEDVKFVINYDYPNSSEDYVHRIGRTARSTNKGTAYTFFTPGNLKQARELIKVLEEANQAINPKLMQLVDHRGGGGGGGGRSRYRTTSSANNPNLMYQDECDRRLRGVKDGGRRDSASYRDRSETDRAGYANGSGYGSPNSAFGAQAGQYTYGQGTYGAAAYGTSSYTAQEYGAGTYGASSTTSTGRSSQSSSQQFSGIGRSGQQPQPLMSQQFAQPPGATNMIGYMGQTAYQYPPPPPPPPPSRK
UniProt Q01844: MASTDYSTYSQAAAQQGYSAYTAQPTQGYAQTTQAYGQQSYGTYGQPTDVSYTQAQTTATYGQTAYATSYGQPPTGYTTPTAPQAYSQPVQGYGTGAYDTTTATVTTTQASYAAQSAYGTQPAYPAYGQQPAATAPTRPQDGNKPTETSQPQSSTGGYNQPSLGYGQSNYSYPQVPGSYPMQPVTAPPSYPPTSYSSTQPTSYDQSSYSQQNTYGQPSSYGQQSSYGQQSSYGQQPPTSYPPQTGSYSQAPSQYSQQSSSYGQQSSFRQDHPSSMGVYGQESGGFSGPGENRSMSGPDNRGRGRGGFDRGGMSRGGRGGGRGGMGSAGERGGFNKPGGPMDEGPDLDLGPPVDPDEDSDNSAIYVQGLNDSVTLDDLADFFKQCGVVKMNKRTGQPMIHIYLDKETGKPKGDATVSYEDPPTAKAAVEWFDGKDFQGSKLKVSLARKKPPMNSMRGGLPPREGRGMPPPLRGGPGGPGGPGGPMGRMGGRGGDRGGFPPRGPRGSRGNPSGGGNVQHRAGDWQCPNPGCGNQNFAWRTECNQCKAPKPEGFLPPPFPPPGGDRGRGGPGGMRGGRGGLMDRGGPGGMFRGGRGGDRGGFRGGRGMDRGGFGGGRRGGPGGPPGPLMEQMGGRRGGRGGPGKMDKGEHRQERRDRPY
UniProt P07437: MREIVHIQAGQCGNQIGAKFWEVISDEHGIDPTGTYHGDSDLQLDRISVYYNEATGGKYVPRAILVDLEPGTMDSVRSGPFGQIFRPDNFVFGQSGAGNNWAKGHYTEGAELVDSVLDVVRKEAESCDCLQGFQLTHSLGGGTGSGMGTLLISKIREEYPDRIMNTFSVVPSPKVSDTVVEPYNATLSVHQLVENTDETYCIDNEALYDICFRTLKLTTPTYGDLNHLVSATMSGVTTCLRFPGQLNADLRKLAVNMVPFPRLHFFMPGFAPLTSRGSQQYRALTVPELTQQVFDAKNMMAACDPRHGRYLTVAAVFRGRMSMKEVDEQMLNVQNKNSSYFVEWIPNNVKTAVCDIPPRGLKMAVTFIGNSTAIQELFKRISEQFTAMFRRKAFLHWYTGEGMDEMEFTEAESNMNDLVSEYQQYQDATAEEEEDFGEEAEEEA

No constants are given. Whether binding was seen depends on the method and setting. In cells and extracts the contact can be indirect. These calls come from enrichment with a bait or labelling near it, and not all partners need be listed.

In this assay the target is Human karyopherin beta-1/importin beta-1 (human (endogenous in HeLa)) (UniProt Q14974). Kind of assay: affinity purification with mass spectrometry; importin beta-1 captured with antibody Sigma I2534 cross-linked to Protein G-Sepharose from extract of RO3306-synchronized and released mitotic HeLa cells; lysis buffer 50 mM Tris HCl pH 8.0, 150 mM NaCl, 1% NP40; overnight at 4 °C; LTQ-Orbitrap …; mouse IgG as control.
“14-3-3 protein epsilon (from UniProt P62258 1-255)”: the binding result is recorded as “binds”. Under “Clathrin h)eavy chain 1 (from UniProt Q00610 1-1675)” stands “binds”; under “Endoplasmin (from UniProt P14625 22-803)”, “binds”. For “Heat shock protein HSP 90-beta (from UniProt P08238 1-724)” the value was “binds”.

For the substance “Heterogeneous nuclear ribonucleoprotein K (from UniProt P61978 1-463)”, the binding entry is reported as “binds”. Consider Histone H1x (from UniProt Q92522 1-213), for which the binding entry is “binds”. Turning to “Mitotic checkpoint protein BUB3 (from UniProt O43684 1-328)”, the binding entry was “binds”. As to “Probable ATP-dependent RNA helicase DDDX5 (from UniProt P17844 1-614)”, the binding entry is “binds”. Under “Probable ATP-dependent RNA helicase DDDX17 (from UniProt Q92841 1-729)” stands “binds”; under “RNA-binding protein EWS (from UniProt Q01844 1-656)”, “binds”; under “Ras GTPase-activating-like protein IQGAP1 (from UniProt P46940 1-1657)”, “binds”.

On to “Tubulin beta chain (from UniProt P07437 1-444)”, for which the binding entry was “binds”.
